Laboratory results reported in PubChem BioAssay AID1224855 (National Center for Advancing Translational Sciences (NCATS), 2016).
Inconclusive means that the source gave no clear call. Such entries were picked first, then a sample of the others. Potencies beside an inconclusive call are fits to weak or partial responses and may not hold up. Calls of active or inactive are those of the source. Calls come from the whole dose curve; as a rule, active = well fitted inhibition curve with a large enough effect; inconclusive = small, poorly fitted or top-dose-only effect; inactive = no such curve, though single readings can be large or run the other way.

test: Confirmation assay for measurement of the activity of small molecule inhibitors on Zika virus induced Caspase-3 activity in human iPSC derived neural progenitor cells (hNPCs); settings: hNPC ZIKV-induced caspase-3/7, Caspase-Glo luminescence, 6 h; series mostly up to 46.1 µM
From the text: National Center for Advancing Translational Sciences [NCATS] Johns Hopkins University School of Medicine Florida State University Assay Overview: Increase in the Caspase-3 activity indicates an activation of apoptosis cell death pathway caused by Zika virus infection in certain types of neuronal cells including human neural progenitor cells (hNPCs), astrocytes, and astrocytoma cell line (SNB-19). This cell-based caspase-3 activity assay measures the increased caspase-3 activity in the human iPSC derived neural progenitor cells (hNPCs) after a 6-hour Zika virus infection with a luminescence readout. A decrease in the luminescence signal in this assay by small molecule treatment indicates an inhibitory effect of that small molecule on the Zika virus induced caspase-3 activity that may correlate with its effect on reduction of Zika virus caused cell death.
Assay Protocol Summary: The medium for hNPCs consists of DMEM/F12, N2 supplement (ThermoFisher, Cat.# 17502048), NEAA (ThermoFisher, Cat. # 11140050), 2 ug/ml heparin, 2 uM cyclopamine, and B27 (ThermoFisher, Cat. # 17504044). A Caspase-Glo 3/7 assay kit (catalog number G8092; Promega, Madison, WI) was used to detect caspase-3 activity induced by Zika virus infection in human cells. The reagent mixture was reconstituted as described in the protocol from the manufacturer. Polystyrene tissue culture treated and PDL coated white plates were obtained from Greiner Bio-One (Monroe, NC). Cells were seeded in 384- or 1536-well assay plates and cultured at 37 C with 5% CO2 for 16 to 20 hours. The typical cell seeding density in the 1536-well plate assay is 350 cells/well in 3 ul medium for hNPCs in tissue culture treated plates. Compounds were added to cells and incubated for one hour before addition of ZIKV solution to cells (2 FFU/cell). After incubation at 37 C with 5% CO2 for 6 hours, the reagent mixture of Caspase-Glo 3/7 assay kit was added to each well, followed by incubation at room temperature for 30 minutes. The luminescence intensity of the assay plates was measured using a ViewLux plate reader (PerkinElmer). Data were normalized by using the cell-containing wells without ZIKV as a negative control (0% induction of caspase 3/7 activity) and wells containing ZIKV infected cells (Caspase-3 activity induced) as a positive control (100% induction of caspase 3 activity). The percentage inhibitions of the increased Caspase-3 activity by small molecule inhibitors were then calculated.

SMILES	Potency
CC(C)(C)OC(=O)CN(Cc1ccc(Cl)cc1)Cc1ccc([N+](=O)[O-])s1	inactive
O=C1c2ccccc2C(=O)c2c(NCCc3ccc(O)cc3)ccc(NCCc3ccc(O)cc3)c21	inconclusive: 2.45 µM [inhibitor, full curve]
O=C1c2ccccc2C(=O)c2c1ccc(O)c2O	inconclusive: 21.8 µM [inhibitor, partial curve]
CCCCCCOc1ccccc1C(N)=O	inconclusive: 19.5 µM [inhibitor, partial curve, poor fit]
O=C(O)c1ccccc1Nc1cccc(C(F)(F)F)c1	inconclusive: 17.3 µM [inhibitor, partial curve]
COc1cccc2c1C(=O)c1c(O)c3c(c(O)c1C2=O)C[C@@](O)(C(=O)CO)C[C@@H]3O[C@H]1C[C@H](N)[C@H](O[C@@H]2CCCCO2)[C@H](C)O1	inactive
CC(C(=O)O)c1ccc2c(c1)[nH]c1ccc(Cl)cc12 (stereo not given)	inconclusive: 30.8 µM [inhibitor, single point]
CN1CCN(c2cc3c(nn2)Oc2ccccc2N3C)CC1	inconclusive: 9.5 µM [inhibitor, partial curve, poor fit]
CC(C(=O)O)c1ccc(C(=O)c2ccccc2)s1 (stereo not given)	active: 6.9 µM
Cc1ccc(O)c(N=Nc2ccccc2)n1	active: 1.23 µM
O=C(O)c1cc([N+](=O)[O-])ccc1NCCCc1ccccc1	inconclusive: 8.69 µM [inhibitor, full curve]
CCOC1OC(=O)C[C@H]1NC(=O)[C@@H]1CCCN1C(=O)[C@@H](NC(=O)c1ccc(N)c(Cl)c1)C(C)(C)C (stereo not given in full)	inconclusive: 30.8 µM [inhibitor, single point]
CC(=NNC(=S)N1CCC1)c1ccccn1	inactive
Cc1ccc(C(=O)c2ccc(CC(=O)O)n2C)cc1	inactive
O=c1cc(-c2ccccc2)oc2cc(O)c(O)c(O)c12	inconclusive: 19.5 µM [inhibitor, partial curve, poor fit]
Nc1c(S(=O)(=O)O)cc(Nc2ccc(Nc3nc(Cl)nc(Nc4ccc(S(=O)(=O)O)cc4)n3)c(S(=O)(=O)O)c2)c2c1C(=O)c1ccccc1C2=O	inconclusive: 8.69 µM [inhibitor, partial curve, poor fit]
Cc1nc(N)sc1-c1ccnc(Nc2ccc(N3CCOCC3)cc2)n1	inactive
CC(C(=O)O)c1ccc(C(=O)c2cccs2)cc1 (stereo not given)	inconclusive: 15.5 µM [inhibitor, partial curve]
CCCSc1ccc2nc(NC(=O)OC)[nH]c2c1	inconclusive: 9.75 µM [inhibitor, partial curve, poor fit]
CCOCCOC(=O)/C=C/c1ccc(OC)cc1	inconclusive: 19.5 µM [inhibitor, partial curve]

Part of the list above in a different format.
CCOC1OC(=O)C[C@H]1NC(=O)[C@@H]1CCCN1C(=O)[C@@H](NC(=O)c1ccc(N)c(Cl)c1)C(C)(C)C (stereo not given in full)
  Potency: inconclusive: 30.8 µM [inhibitor, single point]
Nc1c(S(=O)(=O)O)cc(Nc2ccc(Nc3nc(Cl)nc(Nc4ccc(S(=O)(=O)O)cc4)n3)c(S(=O)(=O)O)c2)c2c1C(=O)c1ccccc1C2=O
  Potency: inconclusive: 8.69 µM [inhibitor, partial curve, poor fit]

The list continues.

SMILES	Potency
COc1cccc(-c2ccc(NC(=O)C3=C(C(=O)O)CCC3)c(F)c2)c1	active: 2.45 µM
CC(=Cc1ccccc1)C=C1SC(=S)N(CC(=O)O)C1=O	active: 15.5 µM
Cc1ccc2c(n1)Oc1ccc(C(C)C(=O)OCC(=O)N(C)C)cc1C2 (stereo not given)	inconclusive: 6.15 µM [inhibitor, full curve]
Nc1ncnc2c1ncn2[C@@H]1O[C@@H](CO)[C@H](O)[C@H]1O	inactive
NC(N)=NN=C(/C=C/c1ccc([N+](=O)[O-])o1)/C=C/c1ccc([N+](=O)[O-])o1	inconclusive: 12.3 µM [inhibitor, partial curve, poor fit]
O=c1cc(-c2ccccc2)oc2cc(O)cc(O)c12	inconclusive: 5.48 µM [inhibitor, full curve]
O=C(OCc1ccccc1)c1ccc(O)cc1	inconclusive: 15.5 µM [inhibitor, partial curve]
COc1cc(NC(C)CCCN)c2ncccc2c1 (stereo not given)	inactive
O=c1c(-c2ccc(O)cc2)coc2cc(OC3O[C@H](CO)[C@H](O)[C@H](O)[C@H]3O)cc(O)c12 (stereo not given in full)	inconclusive: 15.5 µM [inhibitor, partial curve]
CN(C)c1ccc2cc(C(=O)N[C@@H](CCCN=C(N)CCl)C(=O)NCc3ccccc3)ccc2c1	inconclusive: 24.5 µM [inhibitor, single point]
CCN(CC)c1ccc(C(=C2C=CC(=[N+](CC)CC)C=C2)c2cc(S(=O)(=O)O)ccc2S(=O)(=O)[O-])cc1	inconclusive: 2.45 µM [inhibitor, partial curve, poor fit]
COc1ccc(-c2cc(=O)c3c(O)cc(O)cc3o2)cc1O	active: 9.75 µM
Cc1nc(-c2ccc(OCC(C)C)c(C#N)c2)sc1C(=O)O	active: 3.88 µM
CN(C)c1ccc(C(=C2C=CC(=[N+](C)C)C=C2)c2ccccc2)cc1	inconclusive: 17.3 µM [inhibitor, single point]
O=C(O)c1ccccc1NCCc1ccccc1	inconclusive: 17.3 µM [inhibitor, single point]
Cc1c(N)c(=O)n(-c2ccccc2)n1C	inactive
O=c1[nH]nc(Sc2ncc([N+](=O)[O-])s2)n1-c1ccc2c(c1)OCCO2	inconclusive: 2.45 µM [inhibitor, full curve, poor fit]
Cc1[nH]c(C=C2C(=O)Nc3ccccc32)c(C)c1CCC(=O)O	inactive
CN1CC(=O)N2C(Cc3c([nH]c4ccccc34)[C@H]2c2ccc3c(c2)OCO3)C1=O (stereo not given in full)	inactive
[O-][n+]1ccccc1SSc1cccc[n+]1[O-]	inconclusive: 14.1 µM [inhibitor, partial curve]
